Assay results published in PubChem BioAssay AID588499 (NMMLSC, 2011).
Among all 360,000 compounds or so, about 610 (0.17%) were called active. Inconclusive means that the source gave no clear call. Such entries were picked first, then a sample of the others. Rule as the data show it: active = inhibition above about 30%; inconclusive = no clear call, values can overlap the other calls; inactive = below that.

tested on: Botulinum neurotoxin type A light chain protease (Clostridium botulinum A str. ATCC 3502); test: blockers of BoNT/A LC substrate cleavage – biochemical, flow cytometry, MLPCN library, primary screen (AID 588499); conditions: multiplex microsphere protease substrate cleavage, at 10 µM, stronger effect = higher value; also: plate controls were buffer without enzyme for full effect and enzyme alone for no effect

Structure (SMILES)	inhibition
Cc1cc(C(=O)N2CCC(C(=O)O)CC2)c(C(F)(F)F)o1	inconclusive: 1.1%
Cc1cc(C)c(S(=O)(=O)NCc2ccccn2)c(C)c1	inconclusive: 3.4%
CN(C)C(CNC(=O)CCCOc1ccccc1)c1ccco1 (configuration not stated)	inconclusive: -1.7%
COc1ccc(CCNC(=O)Cn2nc([N+](=O)[O-])c(Br)c2C)cc1OC	inactive: -5.1%
CCCCCCn1c2c(c(=N)c3c1CCC3)CCC2	inconclusive: 4.4%
O=c1cccccc1NN=C1CCCCC1	inconclusive: 10.5%
Oc1ccc(C[C@H]2CNC(=S)N2CC2CCCN2C[C@H](Cc2ccc(O)cc2)N2C[C@H](Cc3ccc(O)cc3)N(CC3CCCCCC3)C2=S)cc1 (some centres not stated)	inactive: -0.9%
COC(=O)c1cnc(SC)nc1C	inconclusive: 2.1%
COc1ccc(C2C(C(=O)c3ccccc3)N3c4ccccc4C=CC3C2[N+](=O)[O-])cc1 (configuration not stated)	inconclusive: 21.5%
CCCCC(=O)Nc1ccc(C(=O)NCC(=O)OC)cc1	inactive: -1%
O=C(Nc1cccc(S(=O)(=O)N2CCCCC2)c1)C1CCCN1S(=O)(=O)c1ccccc1F (configuration not stated)	inactive: -0.2%
COc1cccc(Nc2ncc(C(=O)O)c3ccccc23)c1	inactive: 0.1%
FC(F)(F)c1cccnc1-n1cncn1	inconclusive: 2.5%
COCCN(C(=O)c1ccc2c(c1)S(=O)(=O)N=C1CCCCCN12)c1c(N)n(CC(C)C)c(=O)[nH]c1=O	inactive: -0.2%
CC(=O)Nc1ccc2c(c1)ncn2-c1ccccc1	inactive: 0.2%
CCOC(=O)/C(=N/Nc1ccc(OC)cc1)N1CCCc2ccccc21	inconclusive: -2.6%
CC(C)CCn1c(CN(C)Cc2ccccc2)nc2c1c(=O)n(C)c(=O)n2C	inconclusive: 1.6%
N#C/C(C(N)=O)=C1/SC(Cc2ccc(F)cc2)C(=O)N1c1ccccc1 (configuration not stated)	inconclusive: 4.5%
CCNC(=O)c1sc(-c2ccccc2)nc1C	inconclusive: -2.2%
CCOc1ccc(S(=O)(=O)N2CCN(C(=O)CCOc3ccccc3C)CC2)cc1	inconclusive: 3.7%
COc1ccccc1/C=C/C=C1\Oc2c(ccc(O)c2CN2CCN(CCO)CC2)C1=O	active: 31%
Cc1c(CN(C)C(=O)c2ccc(Br)o2)cnn1C	inconclusive: 1.7%
CC(=O)N(C)c1ccc(NC(=S)Nc2ccccc2)cc1	inactive: 0.2%

Among those listed so far, eleven contain nitrogen in an aromatic ring:
Structure (SMILES)	inhibition
Cc1cc(C)c(S(=O)(=O)NCc2ccccn2)c(C)c1	inconclusive: 3.4%
COc1ccc(CCNC(=O)Cn2nc([N+](=O)[O-])c(Br)c2C)cc1OC	inactive: -5.1%
CCCCCCn1c2c(c(=N)c3c1CCC3)CCC2	inconclusive: 4.4%
COC(=O)c1cnc(SC)nc1C	inconclusive: 2.1%
COc1cccc(Nc2ncc(C(=O)O)c3ccccc23)c1	inactive: 0.1%
FC(F)(F)c1cccnc1-n1cncn1	inconclusive: 2.5%
COCCN(C(=O)c1ccc2c(c1)S(=O)(=O)N=C1CCCCCN12)c1c(N)n(CC(C)C)c(=O)[nH]c1=O	inactive: -0.2%
CC(=O)Nc1ccc2c(c1)ncn2-c1ccccc1	inactive: 0.2%
CC(C)CCn1c(CN(C)Cc2ccccc2)nc2c1c(=O)n(C)c(=O)n2C	inconclusive: 1.6%
CCNC(=O)c1sc(-c2ccccc2)nc1C	inconclusive: -2.2%
Cc1c(CN(C)C(=O)c2ccc(Br)o2)cnn1C	inconclusive: 1.7%

(more compounds)

Structure (SMILES)	inhibition
COc1ccc(-c2cc(-c3ccccc3)nc(-c3ccc4c(c3)NC(=O)CO4)c2)cc1	inconclusive: 5.6%
COc1ccc(N(C(=O)c2cccc([N+](=O)[O-])c2)S(=O)(=O)c2ccc3c(c2)n(C)c(=O)n3C)cc1	inconclusive: -0.9%
COc1cccc(N2C(=O)CC(N3CCc4ccccc4C3)C2=O)c1 (configuration not stated)	inconclusive: 28.8%
O=C(c1cccc(Br)c1)c1cn(-c2ccccc2)nc1C(=O)c1ccccc1	inconclusive: -6.5%
COc1cccc(NC(=O)CN(C)C(=O)Cc2cccc3ccccc23)c1	inconclusive: 0.8%
COC(=O)CCSc1cc([N+](=O)[O-])cc2c1c(C1OCCO1)nn2-c1ccccc1	active: 32.9%
CC(C)CNC(=O)COC(=O)c1n[nH]c2ccccc12	inactive: -0.6%
Fc1ccc(C[n+]2csc3ccccc32)cc1	inconclusive: 4.5%
CCCCCn1c(=O)c(C(=O)c2ccccc2)nc2ccccc21	inconclusive: 4.1%
CCC1=C(NCc2ccccc2)COC1=O	inactive: 0.2%
O=C(OCC(=O)c1c[nH]c2ccccc12)c1cccc([N+](=O)[O-])c1	active: 33.4%
COCCNc1cc(C)nc2c(-c3ccccc3OC)c(C)nn12	inactive: -1%
O=C(c1ccc(-c2ccccc2)cc1)c1ccccc1C(=O)N1CCOCC1	inactive: 1.5%
CCCCCC(=O)N1C[C@H](O)[C@@H](n2cc(C3CC3)nn2)C[C@@H]1c1ccc(Cl)cc1	inactive: 0.1%
CCOC(=O)CC(C)(C)/C(C)=N/Nc1ccc([N+](=O)[O-])cc1[N+](=O)[O-]	inactive: -1.3%
CCOC(=O)C1CCCN(CC(=O)NC2=Nc3ccccc3N=C(C)C2c2ccccc2)C1 (configuration not stated)	inconclusive: -6.1%
CN(C)NC(=S)Nc1cccc(Cl)c1	inconclusive: -2%
COc1ccc(N2C(=O)CC(n3cnc4ccccc43)C2=O)cc1 (configuration not stated)	inconclusive: 0.7%
Cc1cc2nc(SCC(=O)Nc3nonc3C)c3c(c2cc1C)CCCC3	inconclusive: 3.8%
Cc1[nH]c2ccccc2c(=O)c1CN1CCCCCC1	inactive: -2.4%
COc1ccc2cc(C(=O)O)ccc2c1	inactive: -3.1%
CCc1cc(C(=O)NCC(c2ccc(OC)cc2)N2CCOCC2)sc1C (configuration not stated)	inconclusive: -4.9%
Cc1ccsc1/C=N/n1c(-c2cc(-c3ccccc3)n[nH]2)n[nH]c1=S	inconclusive: 4.9%

2 neighbouring compounds already listed:
Structure (SMILES)	inhibition
CCOC(=O)/C(=N/Nc1ccc(OC)cc1)N1CCCc2ccccc21	inconclusive: -2.6%
CC(C)CCn1c(CN(C)Cc2ccccc2)nc2c1c(=O)n(C)c(=O)n2C	inconclusive: 1.6%

Continuation:

Structure (SMILES)	inhibition
Cn1c(CO)cnc1SCc1c(Cl)cccc1Cl	inconclusive: 0.1%
CCOC(=O)Nc1ccc2c(c1)nc(CN1CCN(C(C)=O)CC1)n2C	inconclusive: -1.7%
CO/N=C(/CS(=O)Cc1ccc(Cl)cc1)c1ccc(Cl)cc1 (configuration not stated)	inconclusive: -4.4%
O=C(c1cc2c(s1)CCCC2)N1CCN(CCO)CC1	inactive: -0.5%
CCOC(=O)Cc1csc(NC(=O)Cc2ccc(Br)cc2)n1	inconclusive: 7.5%
CN(C(=O)c1cccc(NC(=O)Cc2ccc(NC(=O)C3CCN(C(=O)CCc4ccccc4)CC3)cc2)c1)C1CC1	inactive: -0.1%
CN(CC(=O)Nc1cccnc1)S(=O)(=O)c1cc(Cl)ccc1Cl	inconclusive: -7%
COc1ccccc1-c1nc2n(n1)C(c1cccs1)C(C(=O)Nc1cccnc1)=C(C)N2 (configuration not stated)	inconclusive: -0.2%
CC(Oc1cccc(Br)c1)C(=O)NNC(=O)CCS(=O)(=O)c1ccccc1 (configuration not stated)	inactive: -0.3%
O=S(=O)(NCCC1CC1(Cl)Cl)c1ccccc1 (configuration not stated)	inconclusive: -32.1%
O=[N+]([O-])c1ccc(Cl)c(/C=N/N2CCN(Cc3ccc(Cl)cc3)CC2)c1	inconclusive: 12.7%
Cc1[nH]c2ccccc2c1/C=N/NC(=O)c1cccc(S(=O)(=O)Nc2ccccc2Cl)c1	active: 35.4%
COc1cc2cc(CN(CCCO)S(=O)(=O)c3ccccc3)c(=O)[nH]c2cc1OC	inactive: 0.5%
CCOC(=O)c1cnc2c(c(C)nn2C)c1Oc1cc(Cl)cc(Cl)c1	inconclusive: -60.5%
CC1=NNC(=O)C1CC(=O)N/N=C/c1ccncc1 (configuration not stated)	inconclusive: -53.1%
Cc1cc(NC(=O)CCN2C(=O)C3C4CCC(C4)C3C2=O)c(C)cc1Br (configuration not stated)	inconclusive: -6%
COc1cc(OC)cc(OCC(O)Cn2cnc(-c3ccccc3)c2)c1 (configuration not stated)	inconclusive: -2.3%
COc1ccc(CNC(=O)CN2C(=O)COc3ccc(S(=O)(=O)N4CCCC4)cc32)cc1	active: 52.6%
Cc1ccnc(NC(=O)CCNC(=O)c2ccc(Br)cc2)c1	inactive: -0.2%
COc1ccc(NC2CCCN(C(=O)c3cccc(C(F)(F)F)c3)C2)cc1OC (configuration not stated)	inactive: -4.6%
Cc1ccc(-c2csc3nnc(SCC(=O)Nc4nsc(-c5ccccc5)n4)n23)cc1	inconclusive: 2.8%
CC(C)(C)C(=O)NNC(=O)c1ccc(Oc2cc(Cl)cc(Cl)c2)o1	inconclusive: -2.8%
CCCNC(=O)C1(C)CCN(C(=O)c2cc(C(C)(C)C)nn2C)C1 (configuration not stated)	inactive: -0.1%

Structure (SMILES)	inhibition
Cc1ccc(NC(=O)C(Cc2ccccc2)NC(=O)c2ccco2)cc1 (configuration not stated)	inconclusive: -1%
O=C(CCCCCN1C(=O)c2ccccc2C1=O)Nc1ccc(S(=O)(=O)N2CCCCC2)cc1	inconclusive: 1.7%
c1ccc(Cc2nn3c(Cn4nnc5ccccc54)nnc3s2)cc1	inconclusive: -1.3%
Cc1cc(OC(=O)c2c(Cl)cccc2Cl)nc(C)n1	inconclusive: 0.1%
COC(=O)c1ccc(CSc2ncnc3c2sc2nc(N4CCOCC4)c4c(c23)CCCC4)o1	inconclusive: 4.8%
Cc1nc(-c2cccnc2)sc1C(=O)Nc1ccc(C(F)(F)F)cc1	inconclusive: -1%
Cc1cccc(NC(=S)NNC(=O)CCn2cc(C)cn2)c1	inconclusive: 1.3%
CCOC(=O)N1CCN(C(=O)COc2ccc(S(=O)(=O)Nc3ccc(OCC)cc3)cc2)CC1	inconclusive: -4.3%
CN1C(=O)N(CC(=O)c2ccc3c(c2)OCO3)C(=O)C12CCCCC2	inactive: -0.6%
CC(=O)OCCOc1nc(N(C)C)nc(N(C)C)n1	inconclusive: -8.8%
CCOC(=O)CCC(=O)Nc1ccccc1C(N)=O	inconclusive: -1.4%
O=C(NCc1ccccn1)c1ccccc1Cl	inconclusive: -1.3%
COc1ccccc1C(=O)NCCn1cc(SCC(=O)Nc2cc(C)on2)c2ccccc21	inconclusive: -3.5%
Cc1ccc(CNC(=O)C2CCCC2)cc1	inactive: 1.3%
O=C1CC(Sc2cccs2)C(=O)N1c1ccccc1 (configuration not stated)	inconclusive: -15.7%
CC(=O)Nc1ccc(OC(=O)c2cccs2)cc1	inconclusive: -0.5%
Cn1nnc2sc3c(c2c1=O)CCCC3	inactive: -2.2%
Oc1ccccc1NCC(O)Cn1ccc2ccccc21 (configuration not stated)	inconclusive: 5.7%
O=C(O)/C(=C\c1cccc(OCc2ccccc2)c1)c1ccc(F)cc1	inactive: 1%
Cc1cccc2cc(-c3ccccc3)c(-c3ccccc3)c[n+]12	active: 37.7%
COC(CNC(=O)c1ccc2nc(-c3cccs3)c(-c3cccs3)nc2c1)OC	active: 44.5%
CCc1ccccc1NC(=O)c1cc2ncc(Br)cn2n1	inconclusive: 4.6%
c1ccc2c(c1)CCc1ccccc1C2=C1CCNCC1	inconclusive: 2.2%
